# Source: PubChem BioAssay AID540276 (National Center for Advancing Translational Sciences (NCATS), 2011)
# The whole screen tested about 300,000 compounds, of which about 5,400 (1.8%) were called active. Inconclusive means that the source gave no clear call. Such entries were picked first, then a sample of the others. Calls come from the whole dose curve; tested in HEK293 cells. A potency beside an inconclusive call is a rough fit, not a confirmed value.
# Assay: qHTS for inhibitors of binding or entry into cells for Marburg Virus
# Conditions: Marburg virus pseudotyped entry inhibition, cell reporter; activity change, negative = inhibition: at 37.8 µM (top of the series) unless noted
# % is set by controls: 0 for no effect and ±100 for the full control effect; potency is the fitted concentration of half-maximal effect.
Structure (SMILES),"activity change, negative = inhibition",Potency
Cc1cc(=O)c(C(=O)O)c(C)n1-c1ccccc1,inactive: 5.54%,–
O=C(COc1ccc(Cl)cc1Br)Nc1ccncc1,–,"inconclusive: 35.5 µM [inhibitor, single point]"
C[N+](C)(C)CCCNC(=O)c1ccc(/C=N/O)nc1,–,"inconclusive: 29.1 µM [activator, single point]"
COc1cc(Cl)c(C)cc1Nc1c2c(nc3ccccc13)CCC2,–,"inconclusive: 1.12 µM [inhibitor, full curve, poor fit]"
COc1cc(-n2c(=O)c3ccccc3n(Cc3cc(=O)n4ccccc4n3)c2=O)cc(OC)c1OC,–,"inconclusive: 1.26 µM [activator, single point]"
Cc1cc(C)nc(Sc2ccc(/C=C(\C#N)C(=O)Nc3ccccc3)o2)n1,inactive: 14.2%,–
CCCCCCCCn1c(N2CCN(c3cccc(Cl)c3)CC2)nc2c1c(=O)[nH]c(=O)n2C,–,"inconclusive: 9.2 µM [inhibitor, partial curve, poor fit]"
Cc1[nH]c2ccccc2c1/C=N/NS(=O)(=O)c1ccccc1,–,"inconclusive: 0.562 µM [inhibitor, full curve, poor fit]"
COc1cc(OC)cc(C(=O)OCC(=O)c2ccc(S(=O)(=O)N3CCCCC3)cc2)c1,–,"inconclusive: 0.794 µM [inhibitor, single point]"
CCOC(=O)C1=C(O)/C(=C/c2cccc(OC)c2O)N=C1C,–,"inconclusive: 0.891 µM [inhibitor, full curve, poor fit]"
CCCC(C(=O)NC1CCCC1)N(C(=O)Cn1nnc(-c2ccc(C)o2)n1)c1ccccc1F (stereo not drawn),–,"inconclusive: 15.8 µM [inhibitor, single point]"
COc1ccc(OC)c(NP2(=O)OCC(C)([N+](=O)[O-])CO2)c1 (stereo not drawn),–,"inconclusive: 11.2 µM [activator, single point]"
CC(C)(C)c1ccc(SCCc2ccncc2)cc1,–,"inconclusive: 10 µM [inhibitor, partial curve, poor fit]"
O=C(c1ccc(F)cc1)N1CCN(Cc2ccccc2Br)CC1,–,"inconclusive: 1.41 µM [inhibitor, partial curve, poor fit]"
O=C(COc1ccc2oc(-c3ccccc3)cc(=O)c2c1)Nc1ccccc1,inactive: -11.7%,–
CCOC(=O)C1(CCOc2ccccc2)CCN(Cc2cccc(OC)c2O)CC1,–,"inconclusive: 10 µM [inhibitor, partial curve, poor fit]"
O=C(Nc1ccccc1C(=O)O)c1cc(S(=O)(=O)N2CCOCC2)c(Br)s1,–,"inconclusive: 15.8 µM [inhibitor, single point]"
CC(=O)c1ccc(OCc2ccccc2)c(C)c1O,–,"inconclusive: 1.19 µM [inhibitor, partial curve, poor fit]"
Cc1cccc(NC(=O)c2oc3ccc(S(=O)(=O)N4CCOCC4)cc3c2C)c1C,–,"inconclusive: 20.6 µM [inhibitor, partial curve, poor fit]"
CCn1cc(C(=O)NCCOC)c(=O)c2cc(S(=O)(=O)N3CCOCC3)ccc21,–,"inconclusive: 7.08 µM [activator, partial curve, poor fit]"
CCOC(=O)Nc1c[n+](N2CCOCC2)no1,inactive: 0.656%,–
CC1CN(C(=O)c2ccc(NS(=O)(=O)c3ccc(F)c(F)c3)cc2)CC(C)O1 (stereo not drawn),inactive: 26.8%,–

Structure (SMILES),"activity change, negative = inhibition",Potency
Cc1ccccc1N1CCN(C(=S)c2ccc(-c3ccc([N+](=O)[O-])cc3)o2)CC1,–,"inconclusive: 1.26 µM [inhibitor, single point]"
CCOC(=O)c1c(NC(=O)CSc2nnnn2-c2ccccc2OCC)sc2c1CC(C)(C)NC2(C)C,–,"inconclusive: 22.4 µM [inhibitor, single point]"
CCCC(=O)N/C(N)=N/c1nc2ccccc2o1,–,"inconclusive: 0.631 µM [activator, single point]"
Cn1c(NC(=O)COc2ccccc2)cc(=O)n(C)c1=O,–,"inconclusive: 6.51 µM [activator, single point]"
CCCSc1cc(NCCOC(C)=O)c([N+](=O)[O-])c2nonc12,–,"inconclusive: 6.51 µM [inhibitor, single point]"
CCCNC(=O)c1ccc(Cn2c(=S)[nH]c3c([nH]c4ccc(OC)cc43)c2=O)cc1,–,"inconclusive: 2.31 µM [activator, full curve, poor fit]"
CCOC(=O)n1c(=O)n(Cc2ccccc2)c2ccccc21,inactive: 4.18%,–
C=CCN1C(=O)C(Cc2ccc(F)cc2)S/C1=N/N=C/c1ccco1 (stereo not drawn),inactive: -4.07%,–
CC(C)OC(=O)c1cc2ccccc2oc1=O,inactive: 27%,–
Cc1nc(-c2ccc3c(c2)CCC(=O)N3)cs1,inactive: 6.92% [at 46.1 µM],–
Cc1ccc(NC(=O)Cn2cc(S(=O)(=O)c3ccccc3)c(=O)c3cc4c(cc32)OCO4)cc1,–,"inconclusive: 35.5 µM [inhibitor, partial curve, poor fit]"
Cc1nonc1CN(C)C(=O)CC1C(=O)NCCN1Cc1ccc(F)c(F)c1 (stereo not drawn),inactive: -2.64% [at 46.1 µM],–
O=c1[nH]c(Cc2cccs2)nc2ccccc12,inactive: -9.26%,–
C/C(=N\N1CCCCCC1)c1c(O)n(-c2ccc(Cl)cc2)c(=O)[nH]c1=O,inactive: 5.16% [at 46.1 µM],–
Cc1noc(/C=C/N(C)C)c1S(=O)(=O)N1CCCC(C(=O)NC2CCCCC2)C1 (stereo not drawn),–,"inconclusive: 29.1 µM [inhibitor, single point]"
Cc1ccccc1NC(=O)C1CC(=O)N(Cc2ccccc2)C1 (stereo not drawn),inactive: -7.24% [at 14.2 µM],–
CC(=O)Nc1ccc(S(=O)(=O)Nc2cccc(-c3nc4ccccc4o3)c2)cc1,–,"inconclusive: 0.0651 µM [inhibitor, partial curve, poor fit]"
Cc1csc(=O)n1CC(=O)OCC(=O)c1c(N)n(CC(C)C)c(=O)n(C)c1=O,inactive: -6.32% [at 46.1 µM],–
N/C(=N\OC(=O)Nc1ccccc1)c1ncc([N+](=O)[O-])s1,–,"inconclusive: 35.5 µM [inhibitor, single point]"
O=C(Nc1cccc(S(=O)(=O)NC2=NCCC2)c1)c1c(F)cccc1Cl,–,"inconclusive: 5.62 µM [activator, single point]"
S=P(N1CCOCC1)(N1CC1)N1CC1,–,"inconclusive: 7.94 µM [inhibitor, partial curve, poor fit]"

# Part of the list above, set out differently.
Structure (SMILES)	activity change, negative = inhibition	Potency
Cc1cc(=O)c(C(=O)O)c(C)n1-c1ccccc1	inactive: 5.54%	–
COc1cc(Cl)c(C)cc1Nc1c2c(nc3ccccc13)CCC2	–	inconclusive: 1.12 µM [inhibitor, full curve, poor fit]
Cc1cc(C)nc(Sc2ccc(/C=C(\C#N)C(=O)Nc3ccccc3)o2)n1	inactive: 14.2%	–
Cc1[nH]c2ccccc2c1/C=N/NS(=O)(=O)c1ccccc1	–	inconclusive: 0.562 µM [inhibitor, full curve, poor fit]
CCOC(=O)C1=C(O)/C(=C/c2cccc(OC)c2O)N=C1C	–	inconclusive: 0.891 µM [inhibitor, full curve, poor fit]
O=C(COc1ccc2oc(-c3ccccc3)cc(=O)c2c1)Nc1ccccc1	inactive: -11.7%	–
CCOC(=O)C1(CCOc2ccccc2)CCN(Cc2cccc(OC)c2O)CC1	–	inconclusive: 10 µM [inhibitor, partial curve, poor fit]
CC(=O)c1ccc(OCc2ccccc2)c(C)c1O	–	inconclusive: 1.19 µM [inhibitor, partial curve, poor fit]
CCCC(=O)N/C(N)=N/c1nc2ccccc2o1	–	inconclusive: 0.631 µM [activator, single point]
CCCNC(=O)c1ccc(Cn2c(=S)[nH]c3c([nH]c4ccc(OC)cc43)c2=O)cc1	–	inconclusive: 2.31 µM [activator, full curve, poor fit]
CCOC(=O)n1c(=O)n(Cc2ccccc2)c2ccccc21	inactive: 4.18%	–
Cc1ccc(NC(=O)Cn2cc(S(=O)(=O)c3ccccc3)c(=O)c3cc4c(cc32)OCO4)cc1	–	inconclusive: 35.5 µM [inhibitor, partial curve, poor fit]
Cc1nonc1CN(C)C(=O)CC1C(=O)NCCN1Cc1ccc(F)c(F)c1 (stereo not drawn)	inactive: -2.64% [at 46.1 µM]	–
